The list shows a part of the results, in another mix than the full data. These assays gave more results; the selection is not random.

Protein sequences, listed by entry. Tags and fused reporters are not part of them.
UniProt P16473, whole entry E727D: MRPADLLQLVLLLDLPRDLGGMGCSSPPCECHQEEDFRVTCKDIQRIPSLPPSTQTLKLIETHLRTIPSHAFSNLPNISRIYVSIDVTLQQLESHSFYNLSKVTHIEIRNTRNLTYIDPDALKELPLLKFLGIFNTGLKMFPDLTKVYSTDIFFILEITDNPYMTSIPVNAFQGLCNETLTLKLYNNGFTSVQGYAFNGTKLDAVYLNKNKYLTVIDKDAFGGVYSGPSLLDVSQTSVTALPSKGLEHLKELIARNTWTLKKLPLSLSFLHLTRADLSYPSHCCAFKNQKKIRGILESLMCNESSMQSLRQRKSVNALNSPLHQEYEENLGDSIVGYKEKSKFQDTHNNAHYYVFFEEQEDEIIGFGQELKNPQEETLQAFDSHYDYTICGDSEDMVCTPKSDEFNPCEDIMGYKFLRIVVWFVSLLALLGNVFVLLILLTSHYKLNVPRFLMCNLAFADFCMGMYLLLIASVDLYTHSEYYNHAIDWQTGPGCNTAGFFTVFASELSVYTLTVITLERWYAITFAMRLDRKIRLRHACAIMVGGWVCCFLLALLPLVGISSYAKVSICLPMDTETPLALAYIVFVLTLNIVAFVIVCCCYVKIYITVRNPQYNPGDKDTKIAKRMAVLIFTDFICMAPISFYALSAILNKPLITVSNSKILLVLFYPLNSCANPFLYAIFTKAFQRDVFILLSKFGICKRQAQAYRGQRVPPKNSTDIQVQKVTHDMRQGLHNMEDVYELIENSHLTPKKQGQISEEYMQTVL

The target in the assay is Thyrotropin receptor, Homo sapiens (UniProt P16473). Briefly: PubChem AID 1259395.
In the case of `CCN(CC)CC(=O)Nc1c(C)cccc1C`, the molecule was called inactive.
